The list shows a part of the results. The main result of the screen is listed elsewhere. These columns were measured beside it and carry no call. The list favours compounds with an active or inconclusive main result. The note in brackets gives the kind of curve behind each potency; many fits are weak.
Assay: qHTS Assay for Lipid Storage Modulators in Drosophila S3 Cells;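 as to cell number change: cells counted by Cell Tracker Red CMTPX staining in the red channel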
Settings: BODIPY lipid droplet fluorescence, 18-24 h; for cell number change: measured here: cell count max response, cells fed with added oleic acid
Summary of the method: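 Laser-scanning cytometry quantifies lipid droplet accumulation (500–530 nm total intensity; droplet/cell object ratio) in oleic acid-fed (400 uM added) Drosophila S3 cells treated with a concentration series. 20 uM Triacsin C defined 100% inhibition.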

[1] = measured here: lipid fluorescence (Fed channel) AC50, cells fed with added oleic acid
[2] = measured here: cell number channel AC50, cells fed with added oleic acid

Row | Compound | cell number change | AC50 [1] | AC50 [2]
1 | Cc1cc(C(=O)N/N=C/c2cccc(OC(=O)c3cccc(Br)c3)c2)n[nH]1 | -21% | 6.51 µM [rising, single point] | 
2 | c1ccc(Nc2nnc(-c3cccc4ccccc34)o2)cc1 | 5.58% | 7.31 µM [rising, single point] | 
3 | COC(=O)c1cc(C)nc(N)c1C#N | -62.1% | 0.82 µM [falling, full curve, poor fit] | 29.1 µM [falling, single point]
4 | Cc1cccnc1NC(=O)CCNC(=O)c1ccc(Br)cc1 | -2.27% |  | 
5 | COc1ccc(CN2CCNC(=O)C2CC(=O)NCc2ccc(C)s2)c(OC)c1 (stereo not drawn) | -5.13% | 0.461 µM [falling, partial curve, poor fit] | 0.651 µM [falling, single point]
6 | COc1ccc(/C=N/NC(=O)CCCC(=O)NC2CCCCC2)cc1 | -11.2% | 0.731 µM [rising, full curve, poor fit] | 
7 | COc1ccc(C2(CCN)CC(C)N(C)CC2C)cc1 (stereo not drawn) | 4.79% | 20.6 µM [rising, partial curve, poor fit] | 
8 | C/C(=N\NC(=O)c1cccc(Br)c1)c1ccc(Br)cc1 | 18.7% |  | 
9 | CC(C)NC(=O)CSc1nc(Cc2ccccc2)nc2ccccc12 | -8.8% | 0.116 µM [rising, full curve, poor fit] | 
10 | COc1cc(-n2c(C)nc3cc(C(=O)NCCN4CCOCC4)ccc32)cc(OC)c1OC | 3.49% |  | 0.651 µM [falling, single point]
11 | COc1cccc(NC(=S)N2c3ccccc3CC2C)c1 (stereo not drawn) | -31.2% |  | 8.2 µM [falling, single point]
12 | CC(=O)n1cc(N(C(=O)CCl)c2ccc([N+](=O)[O-])cc2)c2ccccc21 | -31.4% | 29.1 µM [falling, single point] | 20.6 µM [falling, single point]
13 | O=C1NC2(CCCCC2)N=C1c1ccc(F)cc1 | 13.3% | 0.58 µM [falling, full curve] | 
14 | COC(=O)c1ccc(C(=O)OC)c(NC(=S)N2CCCC2)c1 | 29.1% | 0.58 µM [rising, partial curve] | 
15 | CN1CCN(CC(=O)Nc2ccc([N+](=O)[O-])cc2Br)CC1 | 17% | 35.5 µM [rising, single point] | 
16 | CC12CN3CC(C)(CN(C1)C3c1cc(Br)ccc1O)C2=O (stereo not drawn) | 7.34% | 6.51 µM [rising, full curve] | 
17 | CCOC(=O)CNC(=O)C1CCN(S(=O)(=O)c2ccc(-c3nn[nH]n3)cc2)CC1 | 17.5% | 29.1 µM [rising, single point] | 
18 | COc1ccc(C)cc1NC(=O)CN1C(=O)c2ccccc2S1(=O)=O | -1.29% | 4.11 µM [rising, single point] | 
19 | Cn1nnnc1SCC(=O)N1CCc2ccccc2C1 | 0.559% | 0.206 µM [falling, full curve, poor fit] | 
20 | C=CCNc1oc(-c2cccs2)nc1C#N | 33% | 29.1 µM [rising, single point] | 29.1 µM [rising, single point]
21 | CCC(C(=O)NC1CCCC1)N(C(=O)Cn1nnc(-c2ccc(C)o2)n1)c1ccc(OC)cc1 (stereo not drawn) | 10% |  | 

Row | Compound | cell number change | AC50 [1] | AC50 [2]
22 | CC(C)CC(NC(=O)CCl)c1ccccc1 (stereo not drawn) |  | 2.91 µM [falling, full curve] | 
23 | COc1ccc(C2=NOC(C(=O)NC(C)(C)C)C2)cc1 (stereo not drawn) | 40.6% |  | 2.31 µM [rising, full curve]
24 | Cc1ccccc1C(=O)NC1CCN(C(=O)NCc2ccccc2)CC1 | -0.901% |  | 
25 | Cc1onc(-c2ccccc2Cl)c1C(=O)NCCN1CCOCC1 | 10.9% |  | 0.326 µM [rising, full curve]
26 | COc1cc(NC(=O)c2ccccc2)c(OC)cc1NC(=O)CN1CCOCC1 | 15.2% |  | 0.00411 µM [rising, full curve, poor fit]
27 | O=C(NCC1CCCO1)c1cc2c([nH]c3ccccc32)c(-c2ccc(F)cc2)n1 (stereo not drawn) | -16.6% | 29.1 µM [falling, single point] | 
28 | CC(=O)Nc1ccc(S(=O)(=O)N2CCN(Cc3cccnc3)CC2)cc1 |  | 6.51 µM [falling, single point] | 
29 | CCOc1cc(/C=C2/NC(=S)NC2=O)ccc1OCc1ccc([N+](=O)[O-])cc1 | -94.2% | 23.1 µM [falling, single point] | 
30 | CCS(=O)(=O)c1ccc2oc(SCC(=O)NC34CC5CC(CC(C5)C3)C4)nc2c1 | 74.2% |  | 7.31 µM [rising, full curve]
31 | COCCNC(=O)CSc1nc2cc3c(cc2c(=O)n1Cc1ccco1)OCO3 | 3.16% | 0.206 µM [rising, single point] | 
32 | C=CCOC(=O)C1=C(C)NC(C)=C(C(=O)OCC=C)C1/C=C/c1ccccc1 | -46.7% | 18.4 µM [falling, single point] | 16.4 µM [falling, single point]
33 | O=C1c2ccccc2C(=O)N1c1cc([N+](=O)[O-])ccn1 | 4.74% |  | 
34 | COc1ccc(CNC(=O)CNC(c2ccccc2)c2ccccc2)cc1OC | 18.8% |  | 
35 | CCOc1ccc(NC(=O)CCC(=O)c2ccc(F)cc2)cc1 | 11% | 3.66 µM [rising, full curve] | 
36 | CCOC(=O)c1cccc2c(=O)c(C(=O)c3ccc(Cl)cc3)c(C(=O)OC)[nH]c12 | -15.2% |  | 
37 | C/C(=N/NC(=O)CNc1ccc(C)cc1)c1ccc(Cl)cc1 |  | 3.66 µM [rising, partial curve] | 2.91 µM [rising, single point]
38 | NC1=NC(=Nc2cccc(S(=O)(=O)N3CCOCC3)c2)c2ccccc21 | 21.9% |  | 
39 | Cc1cccc(C)c1NC(=O)CNC(=O)c1ccc2ccccc2n1 | -7.5% | 0.058 µM [rising, full curve, poor fit] | 
40 | C/C(=N\NC(=S)NCc1ccccc1)c1ccc(Cl)s1 | 51.5% |  | 
41 | O=c1cnnc(NCc2ccccc2)[nH]1 | 13.4% |  | 
42 | CCCCn1c(=O)[nH]c(=O)c2c1nc(-c1ccncc1)n2CCOC |  |  | 2.31 µM [rising, partial curve]

Row | Compound | cell number change | AC50 [1] | AC50 [2]
43 | COc1ccc(N2CCN(S(=O)(=O)c3ccc4c(c3)N(C(C)=O)CCO4)CC2)cc1 |  | 6.51 µM [rising, single point] | 
44 | COc1ccc(CCNC(=O)CCc2ccc(S(=O)(=O)NC(C)C)cc2)cc1OC | 0.74% | 0.651 µM [falling, full curve, poor fit] | 
45 | Cc1ccccc1C(=O)c1cccn1CC(=O)NCCN1CCN(c2cccc(C)c2C)CC1 | -64.1% |  | 29.1 µM [falling, single point]
46 | COc1ccc(S(=O)(=O)N2CCOCC2)cc1NC(=O)CSc1nnc2ccccn12 | 5.28% |  | 
47 | N#Cc1ccc(OCc2nnc(-c3ccc([N+](=O)[O-])cc3)o2)cc1 | 102% | 23.1 µM [rising, partial curve, poor fit] | 
48 | CC1=C(C(=O)Nc2ccc(C)cn2)C(c2cnn(C)c2)C2=C(CCCC2=O)N1 (stereo not drawn) | 26.5% | 14.6 µM [rising, partial curve, poor fit] | 
49 | COC(=O)C1CCN(C(=O)/C=C/c2ccccc2)CC1 | 2.87% | 13 µM [rising, single point] | 
50 | Cc1ccc(/C(C#N)=C\c2ccc(N3CCOCC3)o2)cc1 | -145% | 29.1 µM [falling, single point] | 18.4 µM [falling, single point]
51 | C#CCOCCOCCOCCNc1nc(N2CCN(C(=O)CCCCCCCCCCNC(=O)Cn3cc(C[C@@H](C)O)nn3)CC2)nc(N2CCN(C(=O)CCCCCCCCCCNC(=O)[C@H](CCCN=C(N)N)n3cc(C[C@@H](C)CC)nn3)CC2)n1 | -37.7% | 29.1 µM [falling, single point] | 29.1 µM [falling, single point]
52 | CCOP(=O)(OCC)c1nc(-c2ccc(Cl)cc2Cl)oc1N1CCOCC1 |  | 7.31 µM [rising, single point] | 
53 | COc1ccc(-c2cc3c(=O)n(CC(=O)N4CCCC4)ncn3n2)cc1 | 18.3% | 9.2 µM [falling, single point] | 
54 | O=S(=O)(c1ccc(NC(=S)NCc2ccc(F)cc2)cc1)N1CCOCC1 |  | 29.1 µM [falling, single point] | 
55 | Cn1c(COc2ccccc2)nnc1SCC(=O)Nc1ccc(S(N)(=O)=O)cc1 | 63.8% |  | 18.4 µM [rising, partial curve]
56 | COc1ccc(C(=O)/C=C/c2cc(OC)c(O)c(OC)c2)c(F)c1 | -69.8% | 25.9 µM [falling, partial curve] | 0.164 µM [falling, partial curve, poor fit]
57 | CCCCN(Cc1cccs1)S(=O)(=O)c1ccc(-c2ccc(=O)[nH]n2)s1 | -11% | 29.1 µM [falling, single point] | 
58 | COc1ccc(-c2noc(CN(C)C(=O)c3ccoc3C)n2)cc1OC | 28.3% | 4.11 µM [rising, partial curve] | 
59 | COc1ccccc1C(=O)n1nc(-c2ccccc2)nc1NCc1ccco1 | 29% |  | 
60 | CC1(C)CC(N2CCCC2)=CC(=[N+]2CCCC2)C1 | -38.4% | 32.6 µM [falling, single point] | 29.1 µM [falling, single point]
61 | CCN1C(=O)[C@@H]2[C@H](C1=O)[C@@H]1C(=O)Nc3ccccc3C(=O)N1[C@@H]2c1ccc(OC)cc1 | -7.98% |  | 
62 | c1ccc(-c2cn(-c3ccccc3)c3[n+]2CCCS3)cc1 | -29.7% |  | 

Three entries from above, as labelled records.
COc1ccc(C2(CCN)CC(C)N(C)CC2C)cc1 (stereo not drawn)
  cell number change: 4.79%; AC50 [1]: 20.6 µM [rising, partial curve, poor fit]
C/C(=N\NC(=O)c1cccc(Br)c1)c1ccc(Br)cc1
  cell number change: 18.7%
CC(C)NC(=O)CSc1nc(Cc2ccccc2)nc2ccccc12
  cell number change: -8.8%; AC50 [1]: 0.116 µM [rising, full curve, poor fit]
